Assay results taken from patent US20130330343A1 (AbbVie / Abbott, published 2013).
Positions count from the first letter of the chain named. Results are given in words; binding and its absence hold for the method and conditions named. Some entries that bind do so weakly or less than the wild type. For part of these data: Tags and fused reporters may be left off the sequences shown.

How the values were obtained:
R&D hRGMc-His = target: T1, R&D hRGMc-His (human, UniProt Q6ZVN8 36-400); experiment: R&D hRGMc-His ELISA
T1 construct: Bought (R&D); not shown: His tag
T1 sequence: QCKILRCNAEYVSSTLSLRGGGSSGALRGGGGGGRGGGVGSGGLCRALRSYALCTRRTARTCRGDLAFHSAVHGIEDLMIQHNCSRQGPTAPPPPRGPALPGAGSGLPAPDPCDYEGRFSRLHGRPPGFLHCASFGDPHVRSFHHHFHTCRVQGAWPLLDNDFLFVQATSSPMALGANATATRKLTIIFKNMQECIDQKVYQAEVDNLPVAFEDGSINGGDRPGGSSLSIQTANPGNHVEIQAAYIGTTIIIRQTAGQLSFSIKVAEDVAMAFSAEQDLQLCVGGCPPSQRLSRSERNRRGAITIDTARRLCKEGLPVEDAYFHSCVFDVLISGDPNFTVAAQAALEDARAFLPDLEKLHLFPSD

human RGMc = target: T2, human RGMc (human, UniProt Q6ZVN8 36-400, limits assumed); experiment: human RGMc direct ELISA
T2 construct: also called hRGMc
T2 sequence: T1 sequence

human RGMa [1] = target: T3, human RGMa (human, UniProt Q96B86 48-422, limits assumed); experiment: hRGMa binding (ELISA)
T3 construct: also called hRGMa; h RGMa
T3 sequence (looked up): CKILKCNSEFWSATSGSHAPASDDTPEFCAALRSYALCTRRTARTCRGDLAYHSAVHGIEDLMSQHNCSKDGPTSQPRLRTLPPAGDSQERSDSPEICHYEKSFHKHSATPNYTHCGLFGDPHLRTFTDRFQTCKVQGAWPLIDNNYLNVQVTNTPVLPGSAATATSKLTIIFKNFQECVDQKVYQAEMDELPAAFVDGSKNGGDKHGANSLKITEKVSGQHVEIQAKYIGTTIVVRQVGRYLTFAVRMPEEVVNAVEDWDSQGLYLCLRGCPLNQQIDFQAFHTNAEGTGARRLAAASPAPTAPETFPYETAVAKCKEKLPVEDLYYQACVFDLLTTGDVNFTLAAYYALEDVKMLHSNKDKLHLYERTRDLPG

human RGMa [2] = target: T3, human RGMa; experiment: hRGMa indirect ELISA; Ab captured by anti-human Fc, biotin hRGMa titrated

Measured: binding

B1: RGMA-h5F9pJP297/pJP298 hIgG1/K mut (antibody, V domains shown)
VH: EVQLVESGGGLVQPGGSLRLSCAASGFTFSNYGMNWIRQAPGKGLEWIGMIYYDSSEKHYADSVKGRFTISRDNSKNTLYLQMNSLRAEDTAVYYCAKGTTPDYWGQGTMVTVSS
VL: DVVLTQSPLSLPVTLGQPASISCRSSQSLEESDGYTFLHWFQQRPGQSPRLLIYEVSTRFSGVPDRFSGSGSGTDFTLKISRVEAEDVGVYYCFQATHDPLTFGQGTKLEIK
notes: Tested as IgG; also called h5F9.AM8; H5F9AM.8
binds: R&D hRGMc-His | human RGMc

B2: RGMA-h5F9pJP297/pJP299 hIgG1/K mut (antibody, V domains shown)
VH: B1 VH with L11V, G16R, I37V, I48V, G49A, K98R
VL: B1 VL with E30A, E31D, Y35D, E55A, T58H, L101V
notes: Tested as IgG; also called h5F9.AM9; H5F9AM.9
binds: all assays above
